Assay results published in the supplement of paper PMC11732987, “Enantioselective OTUD7B fragment discovery through chemoproteomics screening and high-throughput optimisation” (Communications Chemistry, 2025).
This is one part of the list. The data scatter; read single values as rough.

Sequences of proteins named here, by UniProt entry; tags and fusion partners are left off. A change or cut given only in a name is not applied to a line headed by its entry.
UniProt Q14191, whole entry, looked up: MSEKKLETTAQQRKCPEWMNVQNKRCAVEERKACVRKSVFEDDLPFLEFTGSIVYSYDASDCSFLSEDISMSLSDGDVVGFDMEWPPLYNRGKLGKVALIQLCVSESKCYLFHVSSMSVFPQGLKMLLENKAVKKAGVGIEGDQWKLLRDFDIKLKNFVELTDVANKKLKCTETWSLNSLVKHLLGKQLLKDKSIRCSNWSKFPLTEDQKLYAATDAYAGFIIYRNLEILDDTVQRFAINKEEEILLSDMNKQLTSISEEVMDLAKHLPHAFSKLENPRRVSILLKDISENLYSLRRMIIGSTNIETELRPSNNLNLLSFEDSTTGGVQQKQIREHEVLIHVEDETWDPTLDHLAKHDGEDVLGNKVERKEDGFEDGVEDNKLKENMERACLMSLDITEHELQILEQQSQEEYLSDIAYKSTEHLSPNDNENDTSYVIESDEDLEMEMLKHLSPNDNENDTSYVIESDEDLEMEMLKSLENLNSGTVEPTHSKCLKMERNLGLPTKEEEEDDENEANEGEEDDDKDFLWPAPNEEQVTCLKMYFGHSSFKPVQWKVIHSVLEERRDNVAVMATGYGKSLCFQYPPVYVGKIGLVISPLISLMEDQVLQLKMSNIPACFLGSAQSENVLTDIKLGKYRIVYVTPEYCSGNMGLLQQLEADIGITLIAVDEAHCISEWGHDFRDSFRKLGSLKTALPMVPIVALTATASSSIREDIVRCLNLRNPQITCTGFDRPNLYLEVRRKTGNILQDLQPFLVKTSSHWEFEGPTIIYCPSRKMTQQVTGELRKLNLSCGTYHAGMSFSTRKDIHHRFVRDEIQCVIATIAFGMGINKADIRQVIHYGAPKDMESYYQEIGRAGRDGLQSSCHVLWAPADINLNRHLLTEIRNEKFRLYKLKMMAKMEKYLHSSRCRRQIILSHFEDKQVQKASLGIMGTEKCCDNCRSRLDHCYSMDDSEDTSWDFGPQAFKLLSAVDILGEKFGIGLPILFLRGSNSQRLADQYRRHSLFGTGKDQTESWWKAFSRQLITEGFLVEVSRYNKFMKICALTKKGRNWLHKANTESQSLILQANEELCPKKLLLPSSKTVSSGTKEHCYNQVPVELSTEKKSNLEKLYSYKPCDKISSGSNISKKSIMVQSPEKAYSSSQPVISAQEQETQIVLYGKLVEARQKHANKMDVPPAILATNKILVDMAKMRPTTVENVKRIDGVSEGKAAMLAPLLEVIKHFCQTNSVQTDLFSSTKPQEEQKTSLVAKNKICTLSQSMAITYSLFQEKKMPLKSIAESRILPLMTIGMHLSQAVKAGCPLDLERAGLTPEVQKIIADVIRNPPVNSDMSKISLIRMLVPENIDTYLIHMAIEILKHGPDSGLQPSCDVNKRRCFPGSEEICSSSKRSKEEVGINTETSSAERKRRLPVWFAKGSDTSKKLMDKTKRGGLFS
UniProt Q9HAV4: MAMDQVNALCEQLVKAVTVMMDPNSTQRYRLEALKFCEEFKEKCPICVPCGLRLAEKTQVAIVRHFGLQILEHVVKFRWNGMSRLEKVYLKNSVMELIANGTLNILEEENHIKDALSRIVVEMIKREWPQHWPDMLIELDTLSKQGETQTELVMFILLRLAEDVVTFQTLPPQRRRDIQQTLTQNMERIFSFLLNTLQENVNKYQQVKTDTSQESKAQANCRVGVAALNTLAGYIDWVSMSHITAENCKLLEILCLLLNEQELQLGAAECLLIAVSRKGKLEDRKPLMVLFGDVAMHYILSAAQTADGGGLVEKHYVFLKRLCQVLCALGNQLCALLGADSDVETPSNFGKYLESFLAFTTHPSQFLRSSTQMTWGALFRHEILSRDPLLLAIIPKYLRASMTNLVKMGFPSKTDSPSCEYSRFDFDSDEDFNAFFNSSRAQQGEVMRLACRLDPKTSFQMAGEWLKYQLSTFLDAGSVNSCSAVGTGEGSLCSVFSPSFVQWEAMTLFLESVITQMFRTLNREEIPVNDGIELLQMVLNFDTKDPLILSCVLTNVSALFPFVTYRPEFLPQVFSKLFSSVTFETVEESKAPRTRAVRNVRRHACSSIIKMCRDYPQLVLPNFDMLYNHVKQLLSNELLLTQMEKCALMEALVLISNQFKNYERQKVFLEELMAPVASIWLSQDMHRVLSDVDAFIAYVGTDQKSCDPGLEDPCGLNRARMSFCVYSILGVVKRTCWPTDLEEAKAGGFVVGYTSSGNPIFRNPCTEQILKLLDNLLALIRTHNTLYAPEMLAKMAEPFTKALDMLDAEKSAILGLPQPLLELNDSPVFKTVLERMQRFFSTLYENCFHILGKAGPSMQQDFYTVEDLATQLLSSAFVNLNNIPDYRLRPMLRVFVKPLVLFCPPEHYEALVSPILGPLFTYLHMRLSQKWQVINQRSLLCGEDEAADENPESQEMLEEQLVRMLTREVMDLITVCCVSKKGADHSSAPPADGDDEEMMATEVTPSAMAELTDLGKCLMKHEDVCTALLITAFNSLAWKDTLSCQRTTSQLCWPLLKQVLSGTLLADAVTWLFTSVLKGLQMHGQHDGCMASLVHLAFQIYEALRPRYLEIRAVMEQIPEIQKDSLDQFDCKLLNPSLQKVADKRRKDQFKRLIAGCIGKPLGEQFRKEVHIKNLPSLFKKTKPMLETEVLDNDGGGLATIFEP
UniProt O95625: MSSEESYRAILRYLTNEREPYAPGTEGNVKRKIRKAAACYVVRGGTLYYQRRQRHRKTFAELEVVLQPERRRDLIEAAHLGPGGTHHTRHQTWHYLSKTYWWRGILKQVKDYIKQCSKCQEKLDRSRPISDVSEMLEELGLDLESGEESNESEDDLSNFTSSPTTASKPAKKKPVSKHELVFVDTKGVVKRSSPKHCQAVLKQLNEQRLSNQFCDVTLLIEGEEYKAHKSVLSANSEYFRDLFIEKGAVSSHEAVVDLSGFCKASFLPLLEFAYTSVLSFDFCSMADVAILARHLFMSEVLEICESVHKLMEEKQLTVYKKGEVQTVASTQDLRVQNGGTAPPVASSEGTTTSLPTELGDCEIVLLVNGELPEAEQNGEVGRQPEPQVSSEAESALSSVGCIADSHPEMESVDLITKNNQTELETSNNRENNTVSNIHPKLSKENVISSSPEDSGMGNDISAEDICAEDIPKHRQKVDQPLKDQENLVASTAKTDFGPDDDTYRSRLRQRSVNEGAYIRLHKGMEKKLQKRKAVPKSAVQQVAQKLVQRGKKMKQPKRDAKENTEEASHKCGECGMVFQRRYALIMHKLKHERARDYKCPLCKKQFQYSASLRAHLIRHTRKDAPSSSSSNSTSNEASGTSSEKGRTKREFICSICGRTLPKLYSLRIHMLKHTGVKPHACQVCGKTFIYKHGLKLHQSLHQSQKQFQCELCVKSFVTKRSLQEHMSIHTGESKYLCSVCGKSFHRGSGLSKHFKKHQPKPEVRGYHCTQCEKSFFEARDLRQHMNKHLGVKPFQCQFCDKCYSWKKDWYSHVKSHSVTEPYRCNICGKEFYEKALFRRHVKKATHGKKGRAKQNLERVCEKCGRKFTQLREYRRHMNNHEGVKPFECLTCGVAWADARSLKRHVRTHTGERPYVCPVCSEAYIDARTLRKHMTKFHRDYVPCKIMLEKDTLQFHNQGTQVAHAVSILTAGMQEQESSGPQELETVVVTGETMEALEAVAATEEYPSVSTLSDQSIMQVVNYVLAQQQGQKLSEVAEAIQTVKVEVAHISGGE
UniProt Q6PJI9: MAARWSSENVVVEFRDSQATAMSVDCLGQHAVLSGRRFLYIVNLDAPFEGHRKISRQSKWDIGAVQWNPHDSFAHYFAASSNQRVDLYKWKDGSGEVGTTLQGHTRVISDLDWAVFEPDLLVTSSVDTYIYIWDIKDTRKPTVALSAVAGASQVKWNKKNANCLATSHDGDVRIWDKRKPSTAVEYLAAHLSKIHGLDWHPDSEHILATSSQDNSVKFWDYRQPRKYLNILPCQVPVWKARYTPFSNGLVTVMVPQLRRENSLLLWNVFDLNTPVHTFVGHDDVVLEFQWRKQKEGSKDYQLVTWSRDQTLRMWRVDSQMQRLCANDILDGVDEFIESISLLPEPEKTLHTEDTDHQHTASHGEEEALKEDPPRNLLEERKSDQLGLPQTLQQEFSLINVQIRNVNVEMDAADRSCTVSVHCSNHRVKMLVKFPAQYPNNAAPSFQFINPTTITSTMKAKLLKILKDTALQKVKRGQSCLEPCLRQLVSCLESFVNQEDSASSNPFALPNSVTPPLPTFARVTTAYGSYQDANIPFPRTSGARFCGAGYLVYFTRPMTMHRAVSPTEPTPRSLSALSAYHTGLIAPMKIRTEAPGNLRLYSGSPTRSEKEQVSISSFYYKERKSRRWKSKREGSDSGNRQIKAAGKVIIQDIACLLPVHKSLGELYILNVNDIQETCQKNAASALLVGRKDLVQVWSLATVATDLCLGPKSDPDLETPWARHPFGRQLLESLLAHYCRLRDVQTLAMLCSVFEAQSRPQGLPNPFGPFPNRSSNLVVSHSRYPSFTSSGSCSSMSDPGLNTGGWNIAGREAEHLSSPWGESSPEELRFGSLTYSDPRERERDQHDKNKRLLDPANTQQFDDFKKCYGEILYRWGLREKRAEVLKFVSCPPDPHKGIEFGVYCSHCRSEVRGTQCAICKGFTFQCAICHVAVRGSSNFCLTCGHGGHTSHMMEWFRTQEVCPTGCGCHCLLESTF
UniProt A4D1P6: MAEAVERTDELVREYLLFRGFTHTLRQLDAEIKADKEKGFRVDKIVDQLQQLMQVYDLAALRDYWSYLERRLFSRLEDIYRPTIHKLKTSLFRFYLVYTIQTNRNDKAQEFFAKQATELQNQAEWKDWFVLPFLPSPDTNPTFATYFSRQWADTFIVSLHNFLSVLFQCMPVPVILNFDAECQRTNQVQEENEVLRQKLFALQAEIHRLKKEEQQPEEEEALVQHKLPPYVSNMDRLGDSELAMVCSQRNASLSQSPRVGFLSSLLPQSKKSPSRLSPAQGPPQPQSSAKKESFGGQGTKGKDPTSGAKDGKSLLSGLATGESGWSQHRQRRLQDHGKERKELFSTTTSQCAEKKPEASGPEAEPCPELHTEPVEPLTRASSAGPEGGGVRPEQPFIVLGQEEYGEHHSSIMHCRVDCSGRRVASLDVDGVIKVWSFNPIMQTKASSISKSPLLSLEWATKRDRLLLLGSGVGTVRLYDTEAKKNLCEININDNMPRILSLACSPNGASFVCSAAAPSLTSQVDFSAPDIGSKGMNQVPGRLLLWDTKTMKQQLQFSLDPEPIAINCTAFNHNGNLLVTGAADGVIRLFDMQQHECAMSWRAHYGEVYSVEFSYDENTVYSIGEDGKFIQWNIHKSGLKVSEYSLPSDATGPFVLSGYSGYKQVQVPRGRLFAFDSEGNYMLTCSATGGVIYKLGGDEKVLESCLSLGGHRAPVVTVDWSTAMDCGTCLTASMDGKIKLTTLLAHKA
UniProt Q96QU8: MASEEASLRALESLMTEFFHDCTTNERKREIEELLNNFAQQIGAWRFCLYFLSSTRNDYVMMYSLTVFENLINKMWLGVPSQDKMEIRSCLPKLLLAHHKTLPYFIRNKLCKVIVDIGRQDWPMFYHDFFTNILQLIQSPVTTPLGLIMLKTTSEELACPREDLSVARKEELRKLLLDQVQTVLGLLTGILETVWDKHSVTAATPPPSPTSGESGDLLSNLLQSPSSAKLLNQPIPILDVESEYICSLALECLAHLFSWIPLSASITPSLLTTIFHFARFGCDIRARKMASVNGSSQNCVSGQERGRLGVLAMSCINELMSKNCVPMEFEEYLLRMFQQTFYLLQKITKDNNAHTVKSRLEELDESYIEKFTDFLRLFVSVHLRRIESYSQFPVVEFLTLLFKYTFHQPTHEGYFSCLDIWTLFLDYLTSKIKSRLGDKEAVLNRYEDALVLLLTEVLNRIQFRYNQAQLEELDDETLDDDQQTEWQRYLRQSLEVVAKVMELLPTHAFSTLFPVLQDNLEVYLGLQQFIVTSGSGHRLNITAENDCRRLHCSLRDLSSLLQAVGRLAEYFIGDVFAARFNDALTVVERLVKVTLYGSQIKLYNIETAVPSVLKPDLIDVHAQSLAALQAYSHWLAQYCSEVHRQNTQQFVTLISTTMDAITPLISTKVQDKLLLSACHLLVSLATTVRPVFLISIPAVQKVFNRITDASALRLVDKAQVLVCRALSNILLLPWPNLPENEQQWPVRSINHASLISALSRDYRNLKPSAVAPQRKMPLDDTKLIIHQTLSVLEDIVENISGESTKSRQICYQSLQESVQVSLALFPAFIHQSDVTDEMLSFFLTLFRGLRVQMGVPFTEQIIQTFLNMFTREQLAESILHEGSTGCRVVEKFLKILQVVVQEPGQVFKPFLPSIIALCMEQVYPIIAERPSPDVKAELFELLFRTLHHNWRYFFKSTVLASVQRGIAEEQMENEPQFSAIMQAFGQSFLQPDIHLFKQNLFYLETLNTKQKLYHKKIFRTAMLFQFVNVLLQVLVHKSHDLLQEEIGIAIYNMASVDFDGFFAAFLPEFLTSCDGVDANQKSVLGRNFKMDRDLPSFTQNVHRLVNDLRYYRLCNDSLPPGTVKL

Legend:
[1] = compound: ClCC(=O)N[C@@H]1CCCc2ccccc12; test: log2 mean competition ratio of IA-DTB cysteine labelling (DMSO/compound) (log2 ratio); higher = stronger cysteine engagement by compound; details: treatment time: 4 h, cell line lysate: HEK293T
Description: (§1)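 IA-DTB competitive cysteine chemoproteomics in HEK293T RIPA lysate. Lysates were treated with compound 29 or 30 at 50 or 200 µM for 4 h, then IA-DTB (500 µM, 1 h), trypsin-digested, NeutrAvidin-enriched and analysed by diaPASEF. Competition ratio = intensity DMSO / intensity compound (n=4 treated, n=64 DMSO); binding: mean log2 CR ≥ 1 and p ≤ 0.05 plus QC filters. Target is the cysteine site.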

[2] = compound: ClCC(=O)N[C@H]1CCCc2ccccc12; test: as above; details: treatment time: 4 h, cell line lysate: HEK293T
Description: as §1

Target	log2 mean competition ratio ([1]; 50 µM)	log2 mean competition ratio ([1]; 200 µM)	log2 mean competition ratio ([2]; 50 µM)	log2 mean competition ratio ([2]; 200 µM)
WRN C1115 (UniProt Q14191)	0.506	-0.118	0.359	0.0178
WNK2 C2051 (UniProt Q9Y3S1)	0.114	0.0995	0.0575	0.117
XPO5 C10 (UniProt Q9HAV4)	-0.144	-0.549	-0.145	-0.196
ZBTB11 C197 (UniProt O95625)	0.515	-0.15	0.367	-0.0893
WDR59 C865 (UniProt Q6PJI9)	0.287	0.171	-0.0636	0.0212
WDR91 C351 (UniProt A4D1P6)	-0.0335	0.00519	-0.4	0.0409
XPO6 C159 (UniProt Q96QU8)	-0.103	-0.0182	0.164	0.0237
